# Test results as given in the supplement of paper PMC8728848.
# Some of the results follow.
# B1: BT4246 (Bacteroides thetaiotaomicron), Q89ZX5 (protein)
# chain: MGSSHHHHHHENLYFQGHMASDYLDVVPPEQPNIDDAMSSPTRALGFLYSCYGGVSTDLPSAYLGEINSTTDEYVLPYSWNTDGYWGAYAFNTASSTNQDWLWGTTYQYIGQCYLFLQKLENAGSDIASDAEKEQWRAECQFLVAYYHFATLRRYGPIPITDSYIPMDTPTSEYNGRFHFDYCVDWIANQLDEAAKVLPANRTVTNEWGRATSTIAKAVKARLLLYAASPLWNGSFPYPNWQNENFETPGYGKALVSNTYDKSKWERALAACQEALTLATTSGDRELYDDDEYYSRQSLNLPFVPGVADVEDNKEFLKNVMKMRYAVSTRESEGNKEIIWGLSNQFDFYSRYPLRILKKSDGTWHAGYSGVSPTLYTFEHFYTANGKLPEKDLDFTPSSEWFESAGISSREDIIKLNVGREPRFYAWMAFDGGDYGTKFAAGSPLKLEMRNSEMHGYNPSLFNRDHSVTGFLTQKFVDPVTEFYTAGGSTSGTSAPTILFRLAELYLNVAECHAALGNTQEAIDALNPVRERAGIPKLTLADITNNMTIKDWVHNERFVELWNEGHRFFDVRRWAEGAKYFGANKREGLNAEVQSPTFEEFNKRTTVDAPYVWENRMYLNPVFYNEVYKNPQMVQAPGY
# Legend:
# Experiment in all cases: glycan array binding signal (z-score within array); higher = stronger binding
# Settings in all cases: glycan notation: IUPAC condensed, linker removed
# [1] = target: Gal(b1-4)GlcNAc(b1-3)Gal(b1-4)GlcNAc(b1-2)Man(a1-3)[Gal(b1-4)GlcNAc(b1-3)Gal(b1-4)GlcNAc(b1-2)Man(a1-6)]Man(b1-4)GlcNAc(b1-4)[Fuc(a1-6)]GlcNAc
# Procedure, shortened: (§1)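 Glycan array data came from 3228 arrays in the Consortium for Functional Glycomics database, and only arrays with an available protein sequence were kept. Glycan names were put into IUPAC-condensed notation, and columns mapping to the same glycan were averaged. The binding signal is a within-array Z-score, averaged across arrays of one protein sequence run at different concentrations or buffers and across linkers. A negative Z-score can be read as non-binding.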
# [2] = target: Gal(b1-4)GlcNAc(b1-3)Gal(b1-4)GlcNAc(b1-2)[Gal(b1-4)GlcNAc(b1-3)Gal(b1-4)GlcNAc(b1-6)]Man(a1-6)[Gal(b1-4)GlcNAc(b1-3)Gal(b1-4)GlcNAc(b1-2)Man(a1-3)]Man(b1-4)GlcNAc(b1-4)GlcNAc
# Procedure, shortened: as §1
# [3] = target: Gal(b1-4)GlcNAc(b1-3)Gal(b1-4)GlcNAc(b1-2)[Gal(b1-4)GlcNAc(b1-3)Gal(b1-4)GlcNAc(b1-6)]Man(a1-6)[Gal(b1-4)GlcNAc(b1-3)Gal(b1-4)GlcNAc(b1-2)Man(a1-3)]Man(b1-4)GlcNAc(b1-4)[Fuc(a1-6)]GlcNAc
# Procedure, shortened: as §1
# [4] = target: Gal(b1-4)GlcNAc(b1-3)Gal(b1-4)GlcNAc(b1-3)Gal(b1-4)GlcNAc
# Procedure, shortened: as §1
# [5] = target: Gal(b1-4)GlcNAc(b1-3)Gal(b1-4)GlcNAc(b1-3)Gal(b1-4)GlcNAc(b1-2)Man(a1-3)[Gal(b1-4)GlcNAc(b1-3)Gal(b1-4)GlcNAc(b1-3)Gal(b1-4)GlcNAc(b1-2)Man(a1-6)]Man(b1-4)GlcNAc(b1-4)GlcNAc
# Procedure, shortened: as §1
# [6] = target: Gal(b1-4)GlcNAc(b1-3)Gal(b1-4)GlcNAc(b1-3)Gal(b1-4)GlcNAc(b1-2)Man(a1-3)[Gal(b1-4)GlcNAc(b1-3)Gal(b1-4)GlcNAc(b1-3)Gal(b1-4)GlcNAc(b1-2)Man(a1-6)]Man(b1-4)GlcNAc(b1-4)[Fuc(a1-6)]GlcNAc
# Procedure, shortened: as §1
# [7] = target: Gal(b1-4)GlcNAc(b1-3)Gal(b1-4)GlcNAc(b1-3)Gal(b1-4)GlcNAc(b1-2)[Gal(b1-4)GlcNAc(b1-3)Gal(b1-4)GlcNAc(b1-3)Gal(b1-4)GlcNAc(b1-6)]Man(a1-6)[Gal(b1-4)GlcNAc(b1-3)Gal(b1-4)GlcNAc(b1-3)Gal(b1-4)GlcNAc(b1-2)Man(a1-3)]Man(b1-4)GlcNAc(b1-4)[Fuc(a1-6)]GlcNAc
# Procedure, shortened: as §1
# [8] = target: Gal(b1-4)GlcNAc(b1-3)Gal(b1-4)GlcNAc(b1-3)Gal(b1-4)GlcNAc(b1-3)Gal(b1-4)GlcNAc(b1-2)Man(a1-3)[Gal(b1-4)GlcNAc(b1-3)Gal(b1-4)GlcNAc(b1-3)Gal(b1-4)GlcNAc(b1-3)Gal(b1-4)GlcNAc(b1-2)Man(a1-6)]Man(b1-4)GlcNAc(b1-4)GlcNAc
# Procedure, shortened: as §1
# [9] = target: Gal(b1-4)GlcNAc(b1-3)Gal(b1-4)GlcNAc(b1-3)Gal(b1-4)GlcNAc(b1-3)Gal(b1-4)GlcNAc(b1-2)Man(a1-3)[Gal(b1-4)GlcNAc(b1-3)Gal(b1-4)GlcNAc(b1-3)Gal(b1-4)GlcNAc(b1-3)Gal(b1-4)GlcNAc(b1-2)Man(a1-6)]Man(b1-4)GlcNAc(b1-4)[Fuc(a1-6)]GlcNAc
# Procedure, shortened: as §1
# [10] = target: Gal(b1-4)GlcNAc(b1-3)Gal(b1-4)GlcNAc(b1-3)Gal(b1-4)GlcNAc(b1-3)Gal(b1-4)GlcNAc(b1-2)[Gal(b1-4)GlcNAc(b1-3)Gal(b1-4)GlcNAc(b1-3)Gal(b1-4)GlcNAc(b1-3)Gal(b1-4)GlcNAc(b1-6)]Man(a1-6)[Gal(b1-4)GlcNAc(b1-3)Gal(b1-4)GlcNAc(b1-3)Gal(b1-4)GlcNAc(b1-3)Gal(b1-4)GlcNAc(b1-2)Man(a1-3)]Man(b1-4)GlcNAc(b1-4)[Fuc(a1-6)]GlcNAc
# Procedure, shortened: as §1
# [11] = target: Gal(b1-4)GlcNAc(b1-3)Gal(b1-4)GlcNAc(b1-3)Gal(b1-4)GlcNAc(b1-3)Gal(b1-4)GlcNAc(b1-3)Gal(b1-4)GlcNAc(b1-2)Man(a1-3)[Gal(b1-4)GlcNAc(b1-3)Gal(b1-4)GlcNAc(b1-3)Gal(b1-4)GlcNAc(b1-3)Gal(b1-4)GlcNAc(b1-3)Gal(b1-4)GlcNAc(b1-2)Man(a1-6)]Man(b1-4)GlcNAc(b1-4)GlcNAc
# Procedure, shortened: as §1
# [12] = target: Gal(b1-4)GlcNAc(b1-3)Gal(b1-4)GlcNAc(b1-3)Gal(b1-4)GlcNAc(b1-3)Gal(b1-4)GlcNAc(b1-3)Gal(b1-4)GlcNAc(b1-2)Man(a1-3)[Gal(b1-4)GlcNAc(b1-3)Gal(b1-4)GlcNAc(b1-3)Gal(b1-4)GlcNAc(b1-3)Gal(b1-4)GlcNAc(b1-3)Gal(b1-4)GlcNAc(b1-2)Man(a1-6)]Man(b1-4)GlcNAc(b1-4)[Fuc(a1-6)]GlcNAc
# Procedure, shortened: as §1
# [13] = target: Gal(b1-4)GlcNAc(b1-3)Gal(b1-4)GlcNAc(b1-3)Gal(b1-4)GlcNAc(b1-3)Gal(b1-4)GlcNAc(b1-3)Gal(b1-4)GlcNAc(b1-2)[Gal(b1-4)GlcNAc(b1-3)Gal(b1-4)GlcNAc(b1-3)Gal(b1-4)GlcNAc(b1-3)Gal(b1-4)GlcNAc(b1-3)Gal(b1-4)GlcNAc(b1-6)]Man(a1-6)[Gal(b1-4)GlcNAc(b1-3)Gal(b1-4)GlcNAc(b1-3)Gal(b1-4)GlcNAc(b1-3)Gal(b1-4)GlcNAc(b1-3)Gal(b1-4)GlcNAc(b1-2)Man(a1-3)]Man(b1-4)GlcNAc(b1-4)[Fuc(a1-6)]GlcNAc
# Procedure, shortened: as §1
# [14] = target: Gal(b1-4)GlcNAc(b1-3)Gal(b1-4)GlcNAc(b1-3)Gal(b1-4)GlcNAc(b1-3)Gal(b1-4)GlcNAc(b1-3)Gal(b1-4)GlcNAc(b1-3)Gal(b1-4)GlcNAc(b1-2)Man(a1-3)[Gal(b1-4)GlcNAc(b1-3)Gal(b1-4)GlcNAc(b1-3)Gal(b1-4)GlcNAc(b1-3)Gal(b1-4)GlcNAc(b1-3)Gal(b1-4)GlcNAc(b1-3)Gal(b1-4)GlcNAc(b1-2)Man(a1-6)]Man(b1-4)GlcNAc(b1-4)GlcNAc
# Procedure, shortened: as §1
# [15] = target: Gal(b1-4)GlcNAc(b1-3)Gal(b1-4)GlcNAc(b1-3)GalNAc
# Procedure, shortened: as §1
# [16] = target: Gal(b1-4)GlcNAc(b1-3)Gal(b1-4)GlcNAc(b1-3)[Gal(b1-4)GlcNAc(b1-3)Gal(b1-4)GlcNAc(b1-6)]GalNAc
# Procedure, shortened: as §1
# [17] = target: Gal(b1-4)GlcNAc(b1-3)Gal(b1-4)GlcNAc(b1-6)[Gal(b1-3)]GalNAc
# Procedure, shortened: as §1
# [18] = target: Gal(b1-4)GlcNAc(b1-3)Gal(b1-4)[Fuc(a1-3)]GlcNAc(b1-3)Gal(b1-4)[Fuc(a1-3)]GlcNAc
# Procedure, shortened: as §1
# [19] = target: Gal(b1-4)GlcNAc(b1-3)GalNAc
# Procedure, shortened: as §1
# [20] = target: Gal(b1-4)GlcNAc(b1-3)[Fuc(a1-3)GlcNAc(b1-6)]Gal(b1-4)Glc
# Procedure, shortened: as §1
# [21] = target: Gal(b1-4)GlcNAc(b1-3)[Gal(b1-4)GlcNAc(b1-6)]Gal(b1-4)GlcNAc
# Procedure, shortened: as §1
# [22] = target: Gal(b1-4)GlcNAc(b1-3)[GlcNAc(b1-6)]Gal(b1-4)GlcNAc
# Procedure, shortened: as §1
# [23] = target: Gal(b1-4)GlcNAc(b1-6)Gal(b1-4)GlcNAc
# Procedure, shortened: as §1
# [24] = target: Gal(b1-4)GlcNAc(b1-6)GalNAc
# Procedure, shortened: as §1
# [25] = target: Gal(b1-4)GlcNAc(b1-6)[Gal(b1-3)]GalNAc
# Procedure, shortened: as §1
# [26] = target: Gal(b1-4)GlcNAc(b1-6)[Gal(b1-4)GlcNAc(b1-3)]GalNAc
# Procedure, shortened: as §1
# [27] = target: Gal(b1-4)GlcNAc6P
# Procedure, shortened: as §1
# [28] = target: Gal(b1-6)Gal
# Procedure, shortened: as §1
# [29] = target: Gal3S(b1-3)GalNAc
# Procedure, shortened: as §1
# [30] = target: Gal3S(b1-3)GlcNAc
# Procedure, shortened: as §1
binder,measurement,setting,value
B1,glycan array binding signal (z-score),[1],0.242
same,glycan array binding signal (z-score),[2],2.71
same,glycan array binding signal (z-score),[3],0.32
same,glycan array binding signal (z-score),[4],-0.807
same,glycan array binding signal (z-score),[5],1.38
same,glycan array binding signal (z-score),[6],0.125
same,glycan array binding signal (z-score),[7],-0.171
same,glycan array binding signal (z-score),[8],-0.533
same,glycan array binding signal (z-score),[9],0.893
same,glycan array binding signal (z-score),[10],-0.329
same,glycan array binding signal (z-score),[11],1.88
same,glycan array binding signal (z-score),[12],0.175
same,glycan array binding signal (z-score),[13],1.25
same,glycan array binding signal (z-score),[14],-0.605
same,glycan array binding signal (z-score),[15],-0.435
same,glycan array binding signal (z-score),[16],1.98
same,glycan array binding signal (z-score),[17],-0.514
same,glycan array binding signal (z-score),[18],-1.29
same,glycan array binding signal (z-score),[19],-0.18
same,glycan array binding signal (z-score),[20],-0.493
same,glycan array binding signal (z-score),[21],2.23
same,glycan array binding signal (z-score),[22],-0.588
same,glycan array binding signal (z-score),[23],-1.45
same,glycan array binding signal (z-score),[24],0.315
same,glycan array binding signal (z-score),[25],0.573
same,glycan array binding signal (z-score),[26],-0.196
same,glycan array binding signal (z-score),[27],-0.324
same,glycan array binding signal (z-score),[28],0.501
same,glycan array binding signal (z-score),[29],-1.44
same,glycan array binding signal (z-score),[30],-0.047

# 2 entries picked at random from the list so far:
binder,measurement,setting,value
B1,glycan array binding signal (z-score),[2],2.71
same,glycan array binding signal (z-score),[8],-0.533
